We go through five molecules from paper PMC11109957.

Protein sequences, listed by entry. Tags and fused reporters are not part of them.
UniProt O15527: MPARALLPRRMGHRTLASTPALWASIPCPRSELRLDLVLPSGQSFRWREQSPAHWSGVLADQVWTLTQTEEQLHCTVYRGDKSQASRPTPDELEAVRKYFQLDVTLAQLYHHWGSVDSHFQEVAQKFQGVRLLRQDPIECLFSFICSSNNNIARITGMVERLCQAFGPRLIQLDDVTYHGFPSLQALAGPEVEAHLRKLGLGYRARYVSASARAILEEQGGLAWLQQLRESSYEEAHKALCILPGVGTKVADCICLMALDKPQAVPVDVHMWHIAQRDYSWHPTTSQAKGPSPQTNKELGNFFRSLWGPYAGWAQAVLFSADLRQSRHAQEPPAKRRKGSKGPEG
UniProt Q13535: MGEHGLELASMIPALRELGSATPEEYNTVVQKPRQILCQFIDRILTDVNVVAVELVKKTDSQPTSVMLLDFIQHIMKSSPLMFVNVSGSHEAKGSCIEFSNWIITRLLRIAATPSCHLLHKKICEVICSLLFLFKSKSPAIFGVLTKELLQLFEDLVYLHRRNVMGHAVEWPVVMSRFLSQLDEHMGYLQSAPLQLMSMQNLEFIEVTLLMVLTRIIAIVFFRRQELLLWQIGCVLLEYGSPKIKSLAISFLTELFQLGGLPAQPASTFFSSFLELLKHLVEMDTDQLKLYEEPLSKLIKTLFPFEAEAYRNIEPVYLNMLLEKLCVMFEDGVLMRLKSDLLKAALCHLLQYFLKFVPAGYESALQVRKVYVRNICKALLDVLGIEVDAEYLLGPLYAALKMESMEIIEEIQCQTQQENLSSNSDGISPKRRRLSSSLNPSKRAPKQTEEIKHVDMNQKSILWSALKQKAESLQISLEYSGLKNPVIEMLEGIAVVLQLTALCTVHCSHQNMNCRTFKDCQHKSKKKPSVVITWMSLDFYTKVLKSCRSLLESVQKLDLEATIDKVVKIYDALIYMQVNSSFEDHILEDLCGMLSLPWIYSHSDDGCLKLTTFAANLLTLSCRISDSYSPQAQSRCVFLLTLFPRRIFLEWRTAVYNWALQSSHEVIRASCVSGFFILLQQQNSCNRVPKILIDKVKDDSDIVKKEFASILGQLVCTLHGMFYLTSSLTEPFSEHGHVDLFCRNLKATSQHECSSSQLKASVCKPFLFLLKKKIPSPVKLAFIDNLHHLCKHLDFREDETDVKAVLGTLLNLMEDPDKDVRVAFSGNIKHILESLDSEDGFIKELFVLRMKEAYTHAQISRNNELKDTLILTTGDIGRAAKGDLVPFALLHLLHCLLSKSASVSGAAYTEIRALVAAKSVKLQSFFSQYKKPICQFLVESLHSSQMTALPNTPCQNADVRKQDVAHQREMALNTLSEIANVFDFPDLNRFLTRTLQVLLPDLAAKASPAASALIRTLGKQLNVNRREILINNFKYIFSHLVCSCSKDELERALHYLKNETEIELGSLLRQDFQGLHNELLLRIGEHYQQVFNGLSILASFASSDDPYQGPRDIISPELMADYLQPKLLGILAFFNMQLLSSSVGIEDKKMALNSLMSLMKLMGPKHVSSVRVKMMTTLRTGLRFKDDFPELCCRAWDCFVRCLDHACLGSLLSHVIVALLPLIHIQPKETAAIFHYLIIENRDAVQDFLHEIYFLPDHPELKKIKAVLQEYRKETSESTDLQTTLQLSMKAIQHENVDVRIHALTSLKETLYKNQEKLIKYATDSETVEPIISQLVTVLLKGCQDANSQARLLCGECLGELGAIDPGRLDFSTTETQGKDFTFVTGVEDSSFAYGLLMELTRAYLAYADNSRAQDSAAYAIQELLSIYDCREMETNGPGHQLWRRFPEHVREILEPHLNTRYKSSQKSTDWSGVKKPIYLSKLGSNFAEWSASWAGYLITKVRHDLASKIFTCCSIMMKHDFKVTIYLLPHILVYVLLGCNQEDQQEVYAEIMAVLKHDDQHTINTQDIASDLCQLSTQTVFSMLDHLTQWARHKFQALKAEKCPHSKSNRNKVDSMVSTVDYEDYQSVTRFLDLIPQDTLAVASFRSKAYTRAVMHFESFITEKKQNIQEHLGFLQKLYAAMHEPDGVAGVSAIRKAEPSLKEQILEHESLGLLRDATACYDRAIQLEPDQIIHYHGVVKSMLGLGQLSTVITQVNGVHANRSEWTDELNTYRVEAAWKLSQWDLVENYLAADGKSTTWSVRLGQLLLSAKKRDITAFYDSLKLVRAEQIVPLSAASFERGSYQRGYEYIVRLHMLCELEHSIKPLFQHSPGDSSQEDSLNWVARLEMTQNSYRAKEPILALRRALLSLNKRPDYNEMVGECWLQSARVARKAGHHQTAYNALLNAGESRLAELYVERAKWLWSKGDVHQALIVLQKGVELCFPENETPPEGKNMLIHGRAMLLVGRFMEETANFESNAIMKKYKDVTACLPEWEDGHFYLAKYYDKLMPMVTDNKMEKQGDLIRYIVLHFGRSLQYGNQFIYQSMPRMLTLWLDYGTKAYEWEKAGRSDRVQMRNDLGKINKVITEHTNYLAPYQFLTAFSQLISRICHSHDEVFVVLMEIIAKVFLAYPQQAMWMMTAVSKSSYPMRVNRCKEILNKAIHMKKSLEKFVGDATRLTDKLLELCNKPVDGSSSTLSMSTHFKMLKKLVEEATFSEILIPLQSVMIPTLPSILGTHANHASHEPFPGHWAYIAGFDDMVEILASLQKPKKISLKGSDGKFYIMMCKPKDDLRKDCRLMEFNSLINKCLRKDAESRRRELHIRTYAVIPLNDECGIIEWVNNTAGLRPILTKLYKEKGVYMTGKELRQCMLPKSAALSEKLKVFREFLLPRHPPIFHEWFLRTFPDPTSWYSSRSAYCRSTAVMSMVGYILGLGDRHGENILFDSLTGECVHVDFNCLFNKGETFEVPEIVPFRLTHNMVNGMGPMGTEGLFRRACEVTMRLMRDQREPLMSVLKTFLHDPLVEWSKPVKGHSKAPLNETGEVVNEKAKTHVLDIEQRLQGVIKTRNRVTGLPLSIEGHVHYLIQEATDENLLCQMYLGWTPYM

Changes are numbered by the printed parent chain. These are yes or no findings as the source states them, for the method shown. In cells and extracts the contact can be indirect. Some results given as binding are weak or reduced against the parent protein; the word gives no strength. For some of these results: Tags and fused reporters may be left off the sequences shown.

The target of assay [1] is T1, SIRT2 (construct of Figure 5C, D, F, K not told) (UniProt Q8IXJ6).
T1 sequence: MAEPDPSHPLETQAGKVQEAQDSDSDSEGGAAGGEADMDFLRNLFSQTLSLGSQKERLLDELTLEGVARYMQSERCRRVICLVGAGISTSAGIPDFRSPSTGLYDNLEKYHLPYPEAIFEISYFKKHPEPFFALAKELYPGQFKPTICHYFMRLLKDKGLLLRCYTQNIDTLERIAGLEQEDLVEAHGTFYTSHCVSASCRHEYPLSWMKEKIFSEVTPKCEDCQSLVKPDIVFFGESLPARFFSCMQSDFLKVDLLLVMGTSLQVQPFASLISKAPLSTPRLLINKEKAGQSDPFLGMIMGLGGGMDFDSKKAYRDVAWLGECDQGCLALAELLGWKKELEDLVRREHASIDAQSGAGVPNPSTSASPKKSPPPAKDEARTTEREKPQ
Kind of assay: co-IP; co-IP of SIRT2 with ATM or ATR; constructs and antibodies not told.

The next assay concerns the target T2, SIRT2 S46AS53A (UniProt Q8IXJ6).
T2 sequence: T1 sequence with S46A, S53A
Kind of assay: co-IP; co-IP of OGG1 with SIRT2 WT or S46AS53A; cells treated with KBrO3, with or without ATM or ATR inhibitors; constructs not told.

For assay [2], the target named is T1, SIRT2 (construct of Figure 5C, D, F, K not told). Described as above.
In assay [3] the target is T3, SIRT2-Flag (UniProt Q8IXJ6).
T3 sequence: T1 sequence
Kind of assay: co-IP; HEK293 cells transfected with a vector encoding Flag-tagged SIRT2; beads coated with an antibody against Flag; blots for BER factors.

For assay [4], the target named is T3, SIRT2-Flag. In words: co-IP; HEK293 cells transfected with SIRT2-Flag and OGG1-His; co-IP with an anti-Flag antibody, Western blot. A general note: In western blotting, separated proteins are transferred to a membrane and probed.
In another assay the target is T4, SIRT2-Flag-GFP (UniProt Q8IXJ6).
T4 sequence: T1 sequence
In words: co-IP; HEK293 cells transfected with SIRT2-Flag-GFP and OGG1-His, treated with 40 mM KBrO3 for 30 min (or with H2O2); co-IP with Flag beads, Western blot.

A further assay deals with OGG1-His (UniProt O15527). Kind of assay: co-IP; HEK293 cells transfected with SIRT2-Flag and OGG1-His; co-IP with an anti-His antibody, Western blot.

As for “ATR (ATM- and Rad3-Related) kinase (from UniProt Q13535 1-2644) (enzyme)”, in assay [1], the binding result is reported as “binds”.

As to “OGG1 (construct of Figure 5F, K not told) (from UniProt O15527 1-345)”, the binding entry (with SIRT2 S46AS53A; in assay [2]) was “binds” each time.

On to OGG1 (from UniProt O15527 1-345), for which the binding entry with SIRT2-Flag [3] is “binds”.

As to OGG1-His (from UniProt O15527 1-345), the binding entry with SIRT2-Flag [4] and in the assay with SIRT2-Flag-GFP was “binds” each time.

B1: SIRT2-Flag (protein, UniProt Q8IXJ6 1-389)
chain: T1 sequence
Take B1: the binding result with OGG1-His was “binds”.
